Data as given in the supplement of paper PMC10849652.
The other results are listed elsewhere or left out.

By UniProt entry, the sequences of proteins in these tests, tags left out. Where a name states a change or a piece, a line headed by the entry shows the natural chain unless it says otherwise.
UniProt Q8TDG4: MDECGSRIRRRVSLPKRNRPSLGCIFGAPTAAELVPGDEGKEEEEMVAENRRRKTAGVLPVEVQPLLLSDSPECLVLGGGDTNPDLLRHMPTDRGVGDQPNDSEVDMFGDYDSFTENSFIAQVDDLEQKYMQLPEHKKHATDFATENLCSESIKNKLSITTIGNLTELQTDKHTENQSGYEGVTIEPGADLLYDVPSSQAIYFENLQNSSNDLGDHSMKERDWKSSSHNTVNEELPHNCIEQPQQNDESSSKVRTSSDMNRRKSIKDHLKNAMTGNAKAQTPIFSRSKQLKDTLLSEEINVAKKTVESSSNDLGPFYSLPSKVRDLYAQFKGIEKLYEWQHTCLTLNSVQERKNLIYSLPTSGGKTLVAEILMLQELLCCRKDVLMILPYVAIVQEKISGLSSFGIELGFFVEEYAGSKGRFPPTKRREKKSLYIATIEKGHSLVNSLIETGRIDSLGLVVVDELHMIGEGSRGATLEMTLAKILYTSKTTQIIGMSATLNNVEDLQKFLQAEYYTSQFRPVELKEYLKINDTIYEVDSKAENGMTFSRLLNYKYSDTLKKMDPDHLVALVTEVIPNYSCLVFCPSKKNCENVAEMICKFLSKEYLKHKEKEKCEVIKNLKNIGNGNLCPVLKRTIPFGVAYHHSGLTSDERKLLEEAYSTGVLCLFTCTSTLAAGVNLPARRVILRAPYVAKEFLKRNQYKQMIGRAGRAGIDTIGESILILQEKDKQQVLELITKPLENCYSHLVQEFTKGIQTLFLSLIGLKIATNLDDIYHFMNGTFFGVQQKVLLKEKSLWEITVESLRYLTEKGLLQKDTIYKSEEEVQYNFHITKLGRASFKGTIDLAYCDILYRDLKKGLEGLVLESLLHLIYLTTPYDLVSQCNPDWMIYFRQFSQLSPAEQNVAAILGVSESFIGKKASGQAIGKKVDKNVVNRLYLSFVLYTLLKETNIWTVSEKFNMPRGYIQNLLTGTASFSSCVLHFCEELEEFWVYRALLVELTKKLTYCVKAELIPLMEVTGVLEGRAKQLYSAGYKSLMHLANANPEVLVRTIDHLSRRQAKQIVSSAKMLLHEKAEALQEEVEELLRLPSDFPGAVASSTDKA
UniProt Q9NQE9: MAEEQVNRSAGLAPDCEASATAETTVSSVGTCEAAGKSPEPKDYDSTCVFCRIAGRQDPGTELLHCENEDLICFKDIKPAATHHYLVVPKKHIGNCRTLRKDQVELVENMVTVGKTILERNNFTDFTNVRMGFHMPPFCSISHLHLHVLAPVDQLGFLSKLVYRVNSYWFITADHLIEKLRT
UniProt Q9BQS7: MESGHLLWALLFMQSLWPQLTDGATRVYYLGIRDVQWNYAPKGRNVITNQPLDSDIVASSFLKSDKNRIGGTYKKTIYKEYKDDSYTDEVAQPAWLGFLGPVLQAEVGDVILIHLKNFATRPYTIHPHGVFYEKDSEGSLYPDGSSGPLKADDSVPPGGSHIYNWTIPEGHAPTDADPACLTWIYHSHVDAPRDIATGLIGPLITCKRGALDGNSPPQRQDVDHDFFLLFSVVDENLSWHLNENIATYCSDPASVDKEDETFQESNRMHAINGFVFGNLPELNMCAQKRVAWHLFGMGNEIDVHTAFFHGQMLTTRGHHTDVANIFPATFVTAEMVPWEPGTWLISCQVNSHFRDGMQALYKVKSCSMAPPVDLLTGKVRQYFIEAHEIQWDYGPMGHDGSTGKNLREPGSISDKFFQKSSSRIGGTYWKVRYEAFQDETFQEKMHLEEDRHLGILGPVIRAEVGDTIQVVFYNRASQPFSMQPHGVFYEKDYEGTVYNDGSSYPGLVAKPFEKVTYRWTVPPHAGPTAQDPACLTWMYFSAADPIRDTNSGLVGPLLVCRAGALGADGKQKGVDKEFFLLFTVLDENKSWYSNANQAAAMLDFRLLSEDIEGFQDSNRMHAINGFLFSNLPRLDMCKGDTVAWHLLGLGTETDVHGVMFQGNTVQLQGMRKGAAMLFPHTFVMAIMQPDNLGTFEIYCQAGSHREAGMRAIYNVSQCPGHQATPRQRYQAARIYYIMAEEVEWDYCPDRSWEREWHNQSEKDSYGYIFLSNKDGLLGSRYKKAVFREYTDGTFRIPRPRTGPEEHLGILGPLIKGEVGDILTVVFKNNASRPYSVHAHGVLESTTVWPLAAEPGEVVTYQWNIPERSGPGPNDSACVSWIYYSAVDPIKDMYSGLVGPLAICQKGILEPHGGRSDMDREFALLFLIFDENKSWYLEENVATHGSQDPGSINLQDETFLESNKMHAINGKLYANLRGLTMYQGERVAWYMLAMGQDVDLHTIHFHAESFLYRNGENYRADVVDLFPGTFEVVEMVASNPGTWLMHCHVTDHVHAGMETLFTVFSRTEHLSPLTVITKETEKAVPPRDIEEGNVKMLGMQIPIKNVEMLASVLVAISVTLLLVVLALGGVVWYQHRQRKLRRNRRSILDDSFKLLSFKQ
UniProt O15347: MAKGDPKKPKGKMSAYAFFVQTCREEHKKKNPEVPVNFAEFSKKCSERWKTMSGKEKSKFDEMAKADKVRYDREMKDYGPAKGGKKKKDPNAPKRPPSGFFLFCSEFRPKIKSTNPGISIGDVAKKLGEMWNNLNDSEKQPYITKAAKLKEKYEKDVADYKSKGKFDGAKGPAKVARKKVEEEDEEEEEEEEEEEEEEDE
UniProt O14964, whole entry, looked up: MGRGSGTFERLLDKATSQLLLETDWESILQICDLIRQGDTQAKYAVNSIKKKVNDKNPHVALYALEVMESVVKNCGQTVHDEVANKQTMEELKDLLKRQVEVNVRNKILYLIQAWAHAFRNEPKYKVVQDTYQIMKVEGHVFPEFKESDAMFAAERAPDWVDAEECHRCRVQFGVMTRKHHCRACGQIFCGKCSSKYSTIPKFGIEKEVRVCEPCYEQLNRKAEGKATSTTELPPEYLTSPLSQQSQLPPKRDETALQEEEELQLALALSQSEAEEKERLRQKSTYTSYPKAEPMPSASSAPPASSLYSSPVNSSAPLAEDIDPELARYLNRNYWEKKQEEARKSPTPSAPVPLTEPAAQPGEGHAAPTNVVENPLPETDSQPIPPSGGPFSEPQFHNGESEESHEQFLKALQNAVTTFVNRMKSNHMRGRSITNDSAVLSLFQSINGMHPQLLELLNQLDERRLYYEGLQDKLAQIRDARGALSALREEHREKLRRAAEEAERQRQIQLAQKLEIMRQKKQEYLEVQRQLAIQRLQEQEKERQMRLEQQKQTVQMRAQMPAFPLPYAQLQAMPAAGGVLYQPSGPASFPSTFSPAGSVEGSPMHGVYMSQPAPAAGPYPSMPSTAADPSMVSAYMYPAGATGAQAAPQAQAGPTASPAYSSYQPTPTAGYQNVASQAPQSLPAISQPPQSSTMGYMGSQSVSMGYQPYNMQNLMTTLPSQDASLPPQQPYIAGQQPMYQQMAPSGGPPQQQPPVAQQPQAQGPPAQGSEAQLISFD
UniProt P51991: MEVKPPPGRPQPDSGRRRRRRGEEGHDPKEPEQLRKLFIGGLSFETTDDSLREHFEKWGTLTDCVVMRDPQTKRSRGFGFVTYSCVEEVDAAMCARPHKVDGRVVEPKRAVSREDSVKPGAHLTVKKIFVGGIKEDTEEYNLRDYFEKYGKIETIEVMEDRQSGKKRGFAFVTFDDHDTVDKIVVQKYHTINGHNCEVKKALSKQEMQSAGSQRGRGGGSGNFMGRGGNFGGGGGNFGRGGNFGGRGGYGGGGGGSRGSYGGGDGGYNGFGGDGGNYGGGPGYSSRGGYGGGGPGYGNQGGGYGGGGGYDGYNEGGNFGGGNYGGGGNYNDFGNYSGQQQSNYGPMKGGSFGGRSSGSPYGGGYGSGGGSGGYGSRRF
UniProt Q9BTY7: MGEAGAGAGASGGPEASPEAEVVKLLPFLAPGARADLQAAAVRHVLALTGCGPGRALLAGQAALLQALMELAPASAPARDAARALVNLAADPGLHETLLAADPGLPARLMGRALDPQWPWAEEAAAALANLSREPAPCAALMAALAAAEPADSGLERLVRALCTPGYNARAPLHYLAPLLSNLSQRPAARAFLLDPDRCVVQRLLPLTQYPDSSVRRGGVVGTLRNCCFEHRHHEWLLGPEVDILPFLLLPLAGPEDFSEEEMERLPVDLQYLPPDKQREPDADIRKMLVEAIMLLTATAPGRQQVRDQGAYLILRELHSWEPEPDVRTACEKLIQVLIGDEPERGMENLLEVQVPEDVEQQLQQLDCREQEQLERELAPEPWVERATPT
UniProt P82970: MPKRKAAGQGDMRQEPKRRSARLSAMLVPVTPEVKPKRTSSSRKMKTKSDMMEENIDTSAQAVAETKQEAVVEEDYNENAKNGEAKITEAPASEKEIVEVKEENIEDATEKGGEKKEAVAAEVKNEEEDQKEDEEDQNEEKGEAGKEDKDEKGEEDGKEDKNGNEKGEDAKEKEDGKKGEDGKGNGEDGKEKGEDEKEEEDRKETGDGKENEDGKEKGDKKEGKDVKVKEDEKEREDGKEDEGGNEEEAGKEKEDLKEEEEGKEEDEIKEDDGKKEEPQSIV
UniProt Q01581: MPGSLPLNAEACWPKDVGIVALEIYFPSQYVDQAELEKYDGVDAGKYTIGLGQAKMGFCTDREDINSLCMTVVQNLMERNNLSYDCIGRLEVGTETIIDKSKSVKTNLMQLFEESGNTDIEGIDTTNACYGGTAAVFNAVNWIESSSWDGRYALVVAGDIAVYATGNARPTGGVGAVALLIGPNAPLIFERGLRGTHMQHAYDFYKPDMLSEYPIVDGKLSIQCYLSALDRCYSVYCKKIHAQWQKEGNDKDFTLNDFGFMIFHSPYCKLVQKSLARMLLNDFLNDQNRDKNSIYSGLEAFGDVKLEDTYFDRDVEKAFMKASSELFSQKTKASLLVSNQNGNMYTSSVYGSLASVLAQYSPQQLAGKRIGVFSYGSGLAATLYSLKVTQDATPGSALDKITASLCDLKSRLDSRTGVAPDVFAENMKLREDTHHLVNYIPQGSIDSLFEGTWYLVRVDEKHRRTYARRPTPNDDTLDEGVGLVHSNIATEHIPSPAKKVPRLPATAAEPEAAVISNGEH
UniProt Q7LGA3: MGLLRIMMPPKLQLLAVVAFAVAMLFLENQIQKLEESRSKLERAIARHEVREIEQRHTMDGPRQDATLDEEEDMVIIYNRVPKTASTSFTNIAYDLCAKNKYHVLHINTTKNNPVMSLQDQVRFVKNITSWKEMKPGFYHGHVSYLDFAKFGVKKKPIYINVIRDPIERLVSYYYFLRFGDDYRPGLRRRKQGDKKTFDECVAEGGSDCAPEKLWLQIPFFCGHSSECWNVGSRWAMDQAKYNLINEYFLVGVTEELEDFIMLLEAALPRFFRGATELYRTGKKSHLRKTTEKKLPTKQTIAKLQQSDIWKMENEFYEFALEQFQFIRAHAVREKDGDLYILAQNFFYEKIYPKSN
UniProt P49773: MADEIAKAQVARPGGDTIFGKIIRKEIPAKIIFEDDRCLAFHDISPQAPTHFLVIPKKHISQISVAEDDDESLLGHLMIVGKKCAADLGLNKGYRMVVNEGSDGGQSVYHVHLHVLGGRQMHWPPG
UniProt P09429: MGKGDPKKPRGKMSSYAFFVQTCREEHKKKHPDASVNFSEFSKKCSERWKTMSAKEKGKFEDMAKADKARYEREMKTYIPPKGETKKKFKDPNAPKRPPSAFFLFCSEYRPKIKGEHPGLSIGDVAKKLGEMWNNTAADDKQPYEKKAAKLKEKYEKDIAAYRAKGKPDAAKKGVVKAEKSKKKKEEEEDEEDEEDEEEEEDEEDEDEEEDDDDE
UniProt P09651: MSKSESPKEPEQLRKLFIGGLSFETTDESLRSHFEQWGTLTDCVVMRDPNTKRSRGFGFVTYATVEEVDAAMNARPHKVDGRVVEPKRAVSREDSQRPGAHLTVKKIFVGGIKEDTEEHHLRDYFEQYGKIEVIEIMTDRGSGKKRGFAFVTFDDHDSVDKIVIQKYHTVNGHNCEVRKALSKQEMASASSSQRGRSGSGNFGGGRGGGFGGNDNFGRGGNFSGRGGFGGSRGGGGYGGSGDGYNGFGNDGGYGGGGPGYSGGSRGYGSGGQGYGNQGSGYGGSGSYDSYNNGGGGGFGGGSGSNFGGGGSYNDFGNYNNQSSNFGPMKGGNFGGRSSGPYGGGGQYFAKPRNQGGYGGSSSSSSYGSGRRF
UniProt P22626: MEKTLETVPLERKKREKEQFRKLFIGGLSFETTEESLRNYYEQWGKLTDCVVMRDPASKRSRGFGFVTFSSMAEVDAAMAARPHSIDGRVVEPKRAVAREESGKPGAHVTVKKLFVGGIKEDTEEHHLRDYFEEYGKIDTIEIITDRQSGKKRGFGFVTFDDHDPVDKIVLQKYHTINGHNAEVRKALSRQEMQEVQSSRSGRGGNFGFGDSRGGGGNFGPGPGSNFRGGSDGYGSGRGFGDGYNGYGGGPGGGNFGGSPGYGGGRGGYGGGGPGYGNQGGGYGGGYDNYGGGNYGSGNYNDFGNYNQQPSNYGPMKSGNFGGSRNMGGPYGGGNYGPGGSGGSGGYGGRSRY

Key:
Assay in all cases: log2 fold change, soluble protein after heating vs DMSO (PISA); higher = thermal stabilisation; K562 lysate, 10 uM; active = over 0.2 and 3.5 SD of the protein, either way, in both replicates (recomputed)
[1] = compound: C=CC(=O)N1CCC[C@@H](n2nc(-c3ccc(Oc4ccccc4)cc3)c3c(N)ncnc32)C1 [ibrutinib]
In short: (§1)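 A 30 min treatment with 10 μM compound was applied to crude K562 extract at 1 mg/mL protein in PBS pH 7.4 with 1 mM MgCl2. Heating for 3 min spanned 48°C-58°C, after which aliquots were pooled, adjusted to 0.5% NP-40 at 4°C and spun at 21,000xg for 90 min. TMTpro 16plex LC-MS/MS of the supernatant, with channel sums equalised, gave values recorded as log-two fold change in thermal stability against solvent controls, from duplicates.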

[2] = compound: CC(=O)c1cnc2ccc(-c3cc(Cl)c(O)c(Cl)c3)nc2c1N[C@H]1CC[C@H](CN(C)C)CC1
In short: as §1

[3] = compound: CC(C)(C)Cn1c(N)nc2ccc(-c3[nH]c(C(C)(C)C)nc3-c3ccc(F)cc3)nc21 [ralimetinib]
In short: as §1

[4] = compound: CC(C)(O)CC(=O)NCCn1ccc2ncnc(Nc3ccc(Oc4cccc(C(F)(F)F)c4)c(Cl)c3)c21
In short: as §1

[5] = compound: CC(C)C1=C2N=C(C=C(N2N=C1)NCC3=CC=CC=C3)NCCCCCCN
In short: as §1

[6] = compound: CC1=C(C(CC(=O)N1)C2=CC=C(C=C2)C(F)(F)F)C(=O)NC3=C(C=C4C(=C3)C=NN4)F
In short: as §1

[7] = compound: CC1=C(C2=C(C=C1)C(=O)C3=CC=CC=C3N2CCCN)C
In short: as §1

[8] = compound: CC1=C(C=C(C=C1)NC(=O)C2=CC(=CC=C2)C(C)(C)C#N)NC3=CC4=C(C=C3)N=CN(C4=O)C
In short: as §1

[9] = compound: CC1=C(C=C(C=C1)NC(=O)C2=CC(=CC=C2)N(C)C)NC(=O)C3=CC=C(C=C3)O
In short: as §1

[10] = compound: CC1=CC=C(C=C1)SC2=C3C=C(SC3=CN=C2)C(=O)N
In short: as §1

Measured: log2 fold change

HLTF (UniProt Q14527)
inactive: [1] 0.016 | [2] 0.054 | [3] 0.024 | [4] -0.017 | [5] -0.023 | [6] 0.046 | [7] 0.048 | [8] -0.022 | [9] 0.003 | [10] -0.018

HELQ (UniProt Q8TDG4)
inactive: [1] 0.054 | [2] 0.072 | [3] -0.007 | [4] -0.017 | [5] -0.012 | [6] 0.203 | [7] 0.003 | [8] -0.036 | [9] 0.046 | [10] -0.002

HIKESHI (UniProt Q53FT3)
inactive: [1] 0.054 | [2] -0.002 | [3] 0.087 | [4] -0.012 | [5] -0.039 | [6] -0.003 | [7] -0.005 | [8] -0.029 | [9] 0.003 | [10] 0.034

HINT3 (UniProt Q9NQE9)
inactive: [1] 0.047 | [2] -0.018 | [3] 0.008 | [4] -0.068 | [5] 0.022 | [6] 0.021 | [7] 0.018 | [8] 0.061 | [9] 0.024 | [10] -0.017

HNRNPL (UniProt P14866)
inactive: [1] -0.015 | [2] 0.012 | [3] 0.047 | [4] 0.046 | [5] 0.051 | [6] 0 | [7] 0.021 | [8] 0.001 | [9] 0.058 | [10] 0.032

HIST2H2AA3 (UniProt Q6FI13)
inactive: [1] -0.011 | [2] -0.014 | [3] -0.112 | [4] 0.065 | [5] 0 | [6] -0.012 | [7] 0.028 | [8] -0.046 | [9] 0.032 | [10] 0.045

HSP90AB4P (UniProt Q58FF6)
inactive: [1] -0.002 | [2] 0.079 | [3] 0.084 | [4] -0.041 | [5] 0 | [6] -0.364 | [7] -0.096 | [8] 0.077 | [9] -0.006 | [10] -0.015

HEPH isoform 3 (UniProt Q9BQS7)
inactive: [1] 0.018 | [2] -0.034 | [3] -0.003 | [4] 0.014 | [5] -0.005 | [6] 0.002 | [7] -0.008 | [8] -0.003 | [9] -0.018 | [10] 0.054

HMGB3 (UniProt O15347)
inactive: [1] -0.01 | [2] 0.032 | [3] 0 | [4] 0.002 | [5] 0.037 | [6] -0.025 | [7] -0.009 | [8] 0.046 | [9] 0.016 | [10] 0.003

HGS (UniProt O14964)
inactive: [1] -0.008 | [2] -0.009 | [3] -0.022 | [4] 0 | [5] 0.014 | [6] -0.012 | [7] 0.035 | [8] 0.021 | [9] 0.004 | [10] -0.005

HNRNPU (UniProt Q00839)
inactive: [1] 0 | [2] -0.005 | [3] 0.005 | [4] 0.027 | [5] 0.017 | [6] -0.022 | [7] 0.022 | [8] -0.058 | [9] 0.018 | [10] 0.044

HNRNPA3 (UniProt P51991)
inactive: [1] -0.014 | [2] -0.027 | [3] 0.009 | [4] 0.054 | [5] -0.016 | [6] -0.017 | [7] 0.049 | [8] -0.024 | [9] -0.026 | [10] 0.073

HIST2H3A (UniProt Q71DI3)
inactive: [1] -0.012 | [2] -0.02 | [3] -0.04 | [4] 0 | [5] -0.002 | [6] 0.014 | [7] 0.009 | [8] 0.024 | [9] 0.044 | [10] -0.027

HRC (UniProt P23327)
inactive: [1] 0.001 | [2] -0.064 | [3] 0.005 | [4] -0.042 | [5] -0.013 | [6] -0.006 | [7] -0.111 | [8] 0.062 | [9] -0.032 | [10] -0.033

HGH1 (UniProt Q9BTY7)
inactive: [1] 0.052 | [2] -0.014 | [3] 0.011 | [4] 0.017 | [5] -0.007 | [6] -0.024 | [7] -0.025 | [8] -0.007 | [9] 0.016 | [10] 0.062

HMGN5 (UniProt P82970)
inactive: [1] -0.035 | [2] -0.012 | [3] -0.064 | [4] -0.021 | [5] 0.006 | [6] -0.004 | [7] -0.035 | [8] -0.011 | [9] 0.036 | [10] -0.056

HMGN4 (UniProt O00479)
inactive: [1] -0.067 | [2] 0.051 | [3] -0.249 | [4] 0 | [5] -0.097 | [6] -0.011 | [7] 0.016 | [8] -0.014 | [9] -0.077 | [10] 0.022

HK1 isoform 2 (UniProt P19367)
inactive: [1] -0.007 | [2] 0.005 | [3] -0.008 | [4] 0.021 | [5] -0.029 | [6] -0.029 | [7] 0.025 | [8] 0.023 | [9] 0.016 | [10] 0.008

HSPA14 (UniProt Q0VDF9)
inactive: [1] 0.004 | [2] -0.008 | [3] 0.009 | [4] -0.013 | [5] -0.032 | [6] -0.02 | [7] -0.009 | [8] -0.012 | [9] 0.033 | [10] 0.004

HPCAL1 (UniProt P37235)
inactive: [1] 0.049 | [2] 0.002 | [3] 0.032 | [4] -0.016 | [5] -0.046 | [6] 0.006 | [7] 0.033 | [8] 0.009 | [9] -0.037 | [10] -0.014

Quoted from the entries so far (2 entries):
HMGN5 (UniProt P82970)
inactive: [1] -0.035 | [2] -0.012 | [3] -0.064 | [4] -0.021 | [5] 0.006 | [6] -0.004 | [7] -0.035 | [8] -0.011 | [9] 0.036 | [10] -0.056

HMGN4 (UniProt O00479)
inactive: [1] -0.067 | [2] 0.051 | [3] -0.249 | [4] 0 | [5] -0.097 | [6] -0.011 | [7] 0.016 | [8] -0.014 | [9] -0.077 | [10] 0.022

Next records

HNRNPK isoform 3 (UniProt P61978)
inactive: [1] 0.105 | [2] -0.021 | [3] 0.04 | [4] -0.083 | [5] -0.018 | [6] -0.038 | [7] -0.005 | [8] 0.051 | [9] -0.077 | [10] 0.028

HERC1 (UniProt Q15751)
inactive: [1] -0.02 | [2] -0.02 | [3] -0.002 | [4] -0.022 | [5] -0.006 | [6] 0.027 | [7] -0.013 | [8] -0.007 | [9] 0.003 | [10] 0.004

HMGCS1 (UniProt Q01581)
inactive: [1] -0.012 | [2] -0.006 | [3] 0.012 | [4] -0.01 | [5] -0.001 | [6] -0.011 | [7] 0.013 | [8] -0.001 | [9] 0.006 | [10] 0.015

HS2ST1 (UniProt Q7LGA3)
inactive: [1] 0.002 | [2] 0.003 | [3] 0.021 | [4] 0.027 | [5] -0.009 | [6] -0.023 | [7] 0.006 | [8] 0.005 | [9] -0.031 | [10] 0.012

HINT1 (UniProt P49773)
inactive: [1] 0.049 | [2] 0.005 | [3] 0.016 | [4] 0.028 | [5] -0.005 | [6] -0.043 | [7] 0.071 | [8] -0.04 | [9] 0.005 | [10] 0.026

HMGB1 (UniProt P09429)
inactive: [1] -0.012 | [2] -0.013 | [3] -0.102 | [4] 0.057 | [5] 0.032 | [6] -0.022 | [7] -0.002 | [8] 0.036 | [9] -0.077 | [10] -0.098

HNRNPA1 (UniProt P09651)
inactive: [1] -0.013 | [2] -0.032 | [3] -0.015 | [4] -0.002 | [5] -0.009 | [6] -0.029 | [7] -0.037 | [8] 0.003 | [9] -0.013 | [10] 0.03

HSP90AA4P (UniProt Q58FG1)
inactive: [1] 0.026 | [2] -0.123 | [3] -0.011 | [4] -0.055 | [5] 0.021 | [6] -0.071 | [7] -0.045 | [8] 0.073 | [9] 0.097 | [10] -0.051

HNRNPA2B1 (UniProt P22626)
inactive: [1] 0.012 | [2] -0.123 | [3] -0.011 | [4] -0.013 | [5] -0.003 | [6] -0.01 | [7] 0.002 | [8] -0.014 | [9] -0.013 | [10] -0.008
